PubChem BioAssay AID1508588, Peter MacCallum Cancer Centre | 2020

- Test: 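Genome-wide search for knock-downs that heighten vemurafenib action in melanoma cells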 (primary screen)
- System: human WM266.4 melanoma cells (BRAF V600 mutant)
- Reagents: siRNA pool against human genes, 40 nM
- Timing: 96 h from transfection to read-out
- Conditions: vemurafenib 300 nM (about IC25), added 48 h after transfection, for 48 h; comparison arm got DMSO vehicle only
- Measured: 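Ratios to non-targeting siRNA for cell gain, counted as DAPI nuclei after minus before drug and averaged over two replicates, and for absorbance-read medium lactate per cell; both binned into fold-change classes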
- Reading the numbers: cell gain with vemurafenib: higher = more cell gain than with non-targeting siRNA; lactate per cell with vemurafenib: higher = more lactate made per cell
- Hit rule: 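Enhancement is called by pairing each knock-down's vehicle-arm and drug-arm fold-change classes for viability or glycolysis; which class combinations qualify is not given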
- Calls: active = enhances vemurafenib effect; inactive = no enhancement seen
The whole screen tested about 18,000 reagents; shown is an unselected part. In the full data, 790 (4.4%) are marked active. 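Calls rest on a combination of fold-change classes in drug and vehicle arms, not all shown here.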 The numbers tell different reagents against one gene apart.

For CHPF (chondroitin polymerizing factor), what does the deposit list?
cell gain with vemurafenib: 0.71; lactate per cell with vemurafenib: 0.68; activity call: inactive

Which result is listed for TFF1 (trefoil factor 1)?
cell gain with vemurafenib: 0.28; lactate per cell with vemurafenib: 2.02; activity call: inactive

With NUFIP1 (nuclear FMR1 interacting protein 1), what was measured?
cell gain with vemurafenib: 0.72; lactate per cell with vemurafenib: 0.84; activity call: inactive

What did the screen give for PLEKHG7 (pleckstrin homology and RhoGEF domain containing G7) #1?
cell gain with vemurafenib: 0.92; lactate per cell with vemurafenib: 1.09; activity call: inactive

How did the screen score PLEKHG7 (pleckstrin homology and RhoGEF domain containing G7) #2?
cell gain with vemurafenib: 0.55; lactate per cell with vemurafenib: 1.03; activity call: inactive

With TMSB4Y (thymosin beta 4 Y-linked), what does the deposit list?
cell gain with vemurafenib: 0.62; lactate per cell with vemurafenib: 0.98; activity call: inactive

For MDP1 (magnesium dependent phosphatase 1), how do the results read?
cell gain with vemurafenib: 0.82; lactate per cell with vemurafenib: 0.98; activity call: inactive

For IDH3G, what was measured?
cell gain with vemurafenib: 0.55; lactate per cell with vemurafenib: 0.55; activity call: inactive

With ZNF488 (zinc finger protein 488), what does the deposit list?
cell gain with vemurafenib: 0; lactate per cell with vemurafenib: 0; activity call: inactive

What is on record for ALOX15 (arachidonate 15-lipoxygenase)?
cell gain with vemurafenib: 0.54; lactate per cell with vemurafenib: 1.4; activity call: inactive

Which result is listed for CDC20 (cell division cycle 20)?
cell gain with vemurafenib: 0.01; lactate per cell with vemurafenib: 2.21; activity call: inactive

With ANKRD20A1 (ankyrin repeat domain 20 family member A1), what was measured?
cell gain with vemurafenib: 0.79; lactate per cell with vemurafenib: 0.53; activity call: inactive

How did the screen score TMEM160 (transmembrane protein 160)?
cell gain with vemurafenib: 0.64; lactate per cell with vemurafenib: 1.62; activity call: inactive

What is on record for BRIP1 (BRCA1 interacting DNA helicase 1)?
cell gain with vemurafenib: 0.33; lactate per cell with vemurafenib: 0.32; activity call: active

For DRGX (dorsal root ganglia homeobox), what does the deposit list?
cell gain with vemurafenib: 0.1; lactate per cell with vemurafenib: 2.28; activity call: inactive

Which result is listed for MYH6 (myosin heavy chain 6)?
cell gain with vemurafenib: 0.5; lactate per cell with vemurafenib: 0.74; activity call: inactive

With GALNT3 (polypeptide N-acetylgalactosaminyltransferase 3), what does the deposit list?
cell gain with vemurafenib: 0.77; lactate per cell with vemurafenib: 1.11; activity call: inactive

Which result is listed for F8A2 (coagulation factor VIII associated 2)?
cell gain with vemurafenib: 0.4; lactate per cell with vemurafenib: 1.19; activity call: inactive

What did the screen give for LHX5 (LIM homeobox 5)?
cell gain with vemurafenib: 1.03; lactate per cell with vemurafenib: 0.62; activity call: inactive

Which result is listed for TAS2R60 (taste 2 receptor member 60)?
cell gain with vemurafenib: 1.33; lactate per cell with vemurafenib: 0.57; activity call: inactive

With HCRTR1 (hypocretin receptor 1), how do the results read?
cell gain with vemurafenib: 0.47; lactate per cell with vemurafenib: 1.14; activity call: inactive

What did the screen give for ATP5PO (ATP synthase peripheral stalk subunit OSCP)?
cell gain with vemurafenib: 0.4; lactate per cell with vemurafenib: 1.33; activity call: inactive

With CIRBP-AS1 (CIRBP antisense RNA 1), how do the results read?
cell gain with vemurafenib: 0.66; lactate per cell with vemurafenib: 0.95; activity call: inactive

With DEFB131A (defensin beta 131A), how do the results read?
cell gain with vemurafenib: 0.78; lactate per cell with vemurafenib: 0.54; activity call: inactive

How did the screen score SCRN2 (secernin 2)?
cell gain with vemurafenib: 0.53; lactate per cell with vemurafenib: 1.07; activity call: inactive

With ZNF649 (zinc finger protein 649), what was measured?
cell gain with vemurafenib: 1.03; lactate per cell with vemurafenib: 0.68; activity call: inactive

For FOXO4 (forkhead box O4), what was measured?
cell gain with vemurafenib: 0.68; lactate per cell with vemurafenib: 0.4; activity call: active

How did the screen score GPR153 (G protein-coupled receptor 153)?
cell gain with vemurafenib: 0.01; lactate per cell with vemurafenib: 2.25; activity call: inactive

How did the screen score LINC02897 (long independently transcribed non-coding RNA 2897)?
cell gain with vemurafenib: 1.47; lactate per cell with vemurafenib: 0.62; activity call: inactive

Which result is listed for DNLZ (DNL-type zinc finger)?
cell gain with vemurafenib: 0.42; lactate per cell with vemurafenib: 0.84; activity call: inactive

What did the screen give for POLB (DNA polymerase beta)?
cell gain with vemurafenib: 0.57; lactate per cell with vemurafenib: 0.7; activity call: inactive

With ODF4 (outer dense fiber of sperm tails 4), how do the results read?
cell gain with vemurafenib: 0.44; lactate per cell with vemurafenib: 0.8; activity call: inactive

With CHD1 (chromodomain helicase DNA binding protein 1), how do the results read?
cell gain with vemurafenib: 0.81; lactate per cell with vemurafenib: 0.64; activity call: inactive

With HES1 (hes family bHLH transcription factor 1), what was measured?
cell gain with vemurafenib: 1; lactate per cell with vemurafenib: 0.86; activity call: inactive

For CT47A1 (cancer/testis antigen family 47 member A1), what does the deposit list?
cell gain with vemurafenib: 0.94; lactate per cell with vemurafenib: 0.3; activity call: active

What is on record for IRAK1 (interleukin 1 receptor associated kinase 1)?
cell gain with vemurafenib: 1.05; lactate per cell with vemurafenib: 0.7; activity call: inactive

With CLLU1-AS1 (CLLU1 antisense RNA 1), what does the deposit list?
cell gain with vemurafenib: 0.52; lactate per cell with vemurafenib: 1.48; activity call: inactive

Which result is listed for DCAF4 (DDB1 and CUL4 associated factor 4)?
cell gain with vemurafenib: 0.01; lactate per cell with vemurafenib: 1.1; activity call: inactive

Which result is listed for ADH5 (alcohol dehydrogenase 5 (class III), chi polypeptide)?
cell gain with vemurafenib: 0.31; lactate per cell with vemurafenib: 1.91; activity call: inactive

What is on record for DEFB128 (defensin beta 128)?
cell gain with vemurafenib: 0.56; lactate per cell with vemurafenib: 1.23; activity call: inactive

Copied from the list:
DNLZ (DNL-type zinc finger), activity call: inactive
Under “cell gain with vemurafenib”, LINC02897 (long independently transcribed non-coding RNA 2897) reads 1.47
BRIP1 (BRCA1 interacting DNA helicase 1), lactate per cell with vemurafenib: 0.32
Entry for TFF1 (trefoil factor 1) under “cell gain with vemurafenib”: 0.28
